From article PMC12431657, “Discovery and mechanistic insights of dibenzoylmethane as a broad spectrum inhibitor of coronavirus” (PLOS Pathogens, 2025)
Counter-ions that a name gives are not always drawn. Like-named read-outs stand apart in the source and are kept apart here. Screen size: about 3,300 compounds; about 95 (3%) showed an effect of 50% or more. Some of the results follow.

Tested on: HCoV-229E
Parameters: species or system Huh-7; HTS, protection from HCoV-229E induced cell death, luminescent cell viability (CellCounting-Lite 2.0), inhibition rate
Details: 24 h post infection, 1 h compound pre-incubation, 10 µM, inhibitor

SMILES	229E Inhibition rate [%]	229E Inhibition rate (229E Inhibition rate, 24 h) [%]
O=c1c(-c2ccccc2)coc2ccccc12 [Isoflavone]	0	
CSC(=O)OCC1=C[C@H](O)[C@@H]2C(C(=O)O)=CO[C@@H](O[C@@H]3O[C@H](CO)[C@@H](O)[C@H](O)[C@H]3O)[C@H]12 [Paederosidic acid]	21.2	
C/C1=C\[C@@H]2[C@H](C/C=C(/CO)[C@@H](O)[C@@H]3[C@@H](O)[C@@H](C)C[C@]3(O)C1=O)C2(C)C [17-Hydroxyisolathyrol]	13.4	
COc1ccc([C@@H]2CC(=O)c3c(O)cc(O[C@@H]4O[C@H](CO)[C@@H](O)[C@H](O)[C@H]4O)cc3O2)cc1 [Isosakuranin]	16.6	
C[C@@H]1C(=O)O[C@H](C)[C@H]1C[C@@H](O)[C@](C)(O)[C@H]1CC[C@@]2(O)C3=CC(=O)[C@@H]4C[C@@H](O)[C@@H](O)C[C@]4(C)[C@H]3CC[C@]12C [Cyasterone]	15.4	
CC(C)=CCc1c(O)cc2oc3cc(O)c(O)c(CC=C(C)C)c3c(=O)c2c1O [Gamma-Mangostin]	33.7	
COc1cc2c3cc1Oc1c(OC)c(OC)cc4c1[C@@H](Cc1ccc(O)c(c1)Oc1ccc(cc1)C[C@@H]3N(C)CC2)N(C)CC4 [Berbamine (dihydrochloride)]		4.5
COc1cc2c(O)c3c(c(-c4ccc5c(c4)OCO5)c2cc1OC)C(=O)OC3 [Diphyllin]	34.5	
C[C@H]1O[C@@H](O[C@H]2CC[C@@]3(C)[C@@H](CC[C@]4(C)[C@@H]3C=C[C@]35OC[C@@]6(CCC(C)(C)C[C@H]63)[C@@H](O)C[C@]54C)[C@]2(C)CO)[C@H](O)[C@@H](O[C@@H]2O[C@H](CO)[C@@H](O)[C@H](O)[C@H]2O)[C@H]1O [Saikosaponin A]	10.5	
COc1cc2c(cc1O)C[C@@H]1NCCc3cc(OC)c(O)c-2c31 [Norisoboldine]	0	
C[C@@]1(CO)C[C@@H](O)C[C@@]2(C)[C@@H]3CC[C@](C)([C@@H](O)CO)C=C3CC[C@H]12 [Kirenol]	17.1	
O=C1c2ccccc2-n2c1nc1ccccc1c2=O [Tryptanthrin]	8.3	
CO[C@@H]1[C@@H](OC(N)=O)[C@@H](O)[C@H](Oc2ccc3c(O)c(NC(=O)c4ccc(O)c(CC=C(C)C)c4)c(=O)oc3c2C)OC1(C)C [Novobiocin (sodium)]	11.4	
Cn1cncc1C[C@H](N)C(=O)O [3-Methyl-L-histidine]	8.4	
CC(=O)O[C@H]1C[C@@]2(O)[C@@H](OC(=O)c3ccccc3)[C@@H]3[C@]4(OC(C)=O)CO[C@@H]4C[C@H](O)[C@@]3(C)[C@@H](O)[C@H](OC(C)=O)C(=C1C)C2(C)C [9-Dihydro-13-acetylbaccatin III]	13.2	
CC[C@H](C)C(=O)O[C@H]1CCC=C2C=C[C@H](C)[C@H](CC[C@@H]3C[C@@H](O)CC(=O)O3)[C@H]21 [Mevastatin]	13.2	
COC(=O)c1ccccc1O[C@@H]1O[C@H](CO[C@@H]2OC[C@@H](O)[C@H](O)[C@H]2O)[C@@H](O)[C@H](O)[C@H]1O [Gaultherin]	45.9	
Cn1c(=O)[nH]c2[nH]cnc2c1=O [1-Methylxanthine]	11.6	
CN1CCC=C(C(=O)O)C1 [Arecaidine]		7.9

SMILES	229E Inhibition rate [%]	229E Inhibition rate (229E Inhibition rate, 24 h) [%]
c1cncc(C2=NCCC2)c1 [Myosmine]	12.6	
O=C(O)/C=C\c1cc2ccoc2cc1O[C@@H]1O[C@H](CO)[C@@H](O)[C@H](O)[C@H]1O [Psoralenoside]	11.6	
O=C(O)C(O)c1ccccc1 (stereo not shown) [Mandelic acid]	13.1	
C[C@H](CCC(=O)O)[C@H]1CC[C@H]2[C@@H]3[C@H](O)C[C@@H]4C[C@H](O)CC[C@]4(C)[C@H]3CC[C@]12C [Chenodeoxycholic Acid]	10.9	
O=C(O)C(O)O [2,2-Dihydroxyacetic acid]	10.1	
O=c1cc(-c2ccc(O[C@@H]3O[C@H](CO)[C@@H](O)[C@H](O)[C@H]3O)cc2)oc2cc(O)c([C@@H]3O[C@H](CO)[C@@H](O)[C@H](O)[C@H]3O[C@@H]3OC[C@H](O)[C@H](O)[C@H]3O)c(O)c12 [Vaccarin]	33.9	
O=C(/C=C/c1ccc(O)c(O)c1)OCCc1ccccc1 [Caffeic acid phenethyl ester]	16.9	
CC(C)=CCC[C@]1(C)CC[C@]2(C)[C@H]3CC[C@@]4(C)[C@@H](CCC(=O)[C@@H]4C)[C@]3(C)CC[C@@]2(C)C1 [Shionone]	20.5	
COc1ccc([C@@H]2CC(=O)c3c(O)cc(O[C@@H]4O[C@H](CO)[C@@H](O)[C@H](O)[C@H]4O[C@@H]4O[C@@H](C)[C@H](O)[C@@H](O)[C@H]4O)cc3O2)cc1O [Neohesperidin]	36.2	
Cn1ccc(=O)n(C)c1=O [1,3-Dimethyluracil]	19.8	
COC(=O)C1=CO[C@@H](O[C@@H]2O[C@H](CO)[C@@H](O)[C@H](O)[C@H]2O)[C@@H]2[C@@]3(C)O[C@H]3[C@@H](O)[C@]12O [Sesamoside]	0	
CC(C)=CCC[C@](C)(O)[C@@H]1CC=C(C)CC1 [Levomenol]		18.7
COc1cc(O)ccc1/C=C/C(=O)c1ccc(O)cc1 [Echinatin]	0	
O=C1c2ccccc2C(=O)c2c1ccc(O)c2O [Alizarin]	25.7	
C=C1[C@H]2C[C@@]3([C@@H]1O)[C@@H](CC2=O)[C@]12[C@@H]4C[C@H]3[C@H]1N(CC)C[C@]4(C)CC[C@@H]2O [Songorine]	6.3	
COC(=O)/C=C/C(C)=C\C=C\C(C)=C\C=C\C=C(C)\C=C\C=C(C)\C=C\C(=O)O [Bixin]	3.1	
COc1cc(O)c2c(c1)O[C@H](c1cc(O)cc(O)c1)CC2=O [Blumeatin]	0	
COc1ccc2c(c1)[nH]c1c(C)nccc12 [Harmine (hydrochloride)]		16.8

Of the compounds above, these have an NH in an aromatic ring:
SMILES	229E Inhibition rate [%]	229E Inhibition rate (229E Inhibition rate, 24 h) [%]
Cn1c(=O)[nH]c2[nH]cnc2c1=O [1-Methylxanthine]	11.6	
COc1ccc2c(c1)[nH]c1c(C)nccc12 [Harmine (hydrochloride)]		16.8
